PubChem BioAssay AID1259266 | Sanger Institute – 2017
Screen: 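Search kinases and colorectal cancer genes for essential genes and drug synergy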 (primary screen). Cells: LS123 human colorectal cancer cells. Knock-down reagent: siRNA pool against human genes. Challenge: anchor drugs BYL719 (1 µM), cetuximab (5 µg/ml) or trametinib (10 nM), each chosen to barely slow growth alone; DMSO vehicle as the drug-free arm. Measured: 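Viability relative to non-targeting control pools, replicate mean, with a robust z-score for knock-down alone and synergy scores for each anchor drug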. Scale: robust z-score, knock-down alone: higher = more cells surviving after knock-down; viability, knock-down alone: higher = more viable cells; synergy score with trametinib and synergy score with BYL719: higher = stronger synthetic lethality with drug. Active means: 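a knock-down counts as essential if its z-score without drug is under -3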. Meaning of the calls: active = essential (knock-down alone cuts viability); inactive = no change.
In all, the deposit lists 794 reagents; this is a part drawn at random. 16 of all reagents (2%) count as active. 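Calls reflect knock-down alone, not drug synergy; viability seems capped at 1 and z-scores at 0.585.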 Further read-outs or replicates are left out here. Not given: the amount of reagent, the time to read-out.

gene	robust z-score, knock-down alone	viability, knock-down alone (fraction of control)	synergy score with trametinib	synergy score with BYL719	outcome
CDK6	0.585	1	-0.13	-0.0264	inactive
SIK3	0.585	1	-0.185	-0.159	inactive
DGKI	0.585	1	-0.14	-0.159	inactive
PGK1	0.445	0.992	-0.0818	-0.0882	inactive
PIP4K2B	0.585	1	-0.0202	-0.0231	inactive
MAP2K5	0.585	1	-0.024	-0.0621	inactive
HASPIN	-0.0477	0.962	-0.0108	-0.0696	inactive
NUP107	0.585	1	-0.129	-0.115	inactive
TSSK4	0.585	1	-0.076	-0.05	inactive
BMP2K	0.585	1	-0.107	-0.1	inactive
CHKA	0.585	1	0.0184	-0.0306	inactive
AK7	0.0762	0.97	-0.175	0.0144	inactive
PDIK1L	0.585	1	-0.0848	-0.159	inactive
TEK	0.585	1	-0.0837	-0.146	inactive
THNSL1	0.585	1	-0.169	-0.159	inactive
KMT2B	-0.148	0.957	-0.0183	-0.0881	inactive
PNKP	-0.961	0.908	-0.0161	-0.076	inactive
FGFR4	0.585	1	-0.0213	-0.114	inactive
XYLB	0.585	1	-0.0929	-0.0956	inactive
ULK1	0.585	1	-0.0129	-0.0788	inactive
PDPK1	0.585	1	-0.0161	-0.0802	inactive
ERBB4	0.585	1	-0.121	-0.0641	inactive
MERTK	0.585	1	-0.0792	-0.103	inactive
PSKH1	0.585	1	-0.0873	-0.159	inactive
PCK2	0.585	1	-0.186	-0.139	inactive
PRKD1	0.0698	0.969	-0.059	-0.00771	inactive
PDK2	-0.515	0.935	-0.0895	-0.166	inactive
STK32A	-0.0652	0.961	-0.0779	-0.0671	inactive
CDK11B	0.585	1	-0.114	-0.159	inactive
MARK4	-1.06	0.902	-0.0881	-0.134	inactive
ACO1	-1.47	0.878	0.00558	-0.0146	inactive
EFNA3	-2.01	0.846	-0.21	-0.171	inactive
PDXK	0.492	0.994	-0.13	-0.155	inactive
MYLK3	0.585	1	-0.0268	-0.0675	inactive
NLK	0.287	0.982	-0.0516	-0.0822	inactive
INSRR	0.585	1	-0.166	-0.159	inactive
GSK3B	0.585	1	-0.0404	-0.119	inactive

The list goes on (7 carried over from the part before).
gene	robust z-score, knock-down alone	viability, knock-down alone (fraction of control)	synergy score with trametinib	synergy score with BYL719	outcome
ACO1	-1.47	0.878	0.00558	-0.0146	inactive
EFNA3	-2.01	0.846	-0.21	-0.171	inactive
PDXK	0.492	0.994	-0.13	-0.155	inactive
MYLK3	0.585	1	-0.0268	-0.0675	inactive
NLK	0.287	0.982	-0.0516	-0.0822	inactive
INSRR	0.585	1	-0.166	-0.159	inactive
GSK3B	0.585	1	-0.0404	-0.119	inactive
SKAP1	0.585	1	-0.131	-0.159	inactive
TRIM27	-0.766	0.92	-0.127	-0.038	inactive
STK3	0.585	1	-0.00502	-0.0554	inactive
COASY	-2	0.847	-0.034	0.0458	inactive
ZAP70	-0.116	0.958	-0.0608	-0.00129	inactive
CAMK2A	0.582	1	0.00561	-0.0617	inactive
TNK2	0.279	0.982	-0.0199	-0.0512	inactive
CDKN1A	0.585	1	-0.15	-0.155	inactive
MAP3K7	0.585	1	-0.107	-0.132	inactive
DGUOK	-1.58	0.871	-0.0902	-0.148	inactive
DAPK1	0.585	1	-0.136	-0.107	inactive
CUL1	0.585	1	-0.112	-0.109	inactive
MAP3K20	0.585	1	-0.124	-0.159	inactive
NEK5	0.585	1	0.00882	-0.138	inactive
MYLK	0.585	1	0.0379	-0.0605	inactive
MAP3K9	-5.79	0.621	0.0403	0.0523	active
CAMK1G	0.585	1	-0.0102	-0.126	inactive
FXN	0.585	1	-0.077	-0.0864	inactive
MAPK10	0.585	1	-0.0901	-0.159	inactive
CILK1	0.488	0.994	-0.0244	-0.0278	inactive
ATRX	0.585	1	-0.159	-0.159	inactive
STK25	0.585	1	-0.0166	-0.0477	inactive
PRKG1	0.585	1	-0.14	-0.155	inactive
CAMK2G	0.231	0.979	-0.0857	-0.072	inactive
ULK3	0.585	1	-0.131	-0.149	inactive
CDKL1	0.585	1	0.0561	-0.0825	inactive
